From patent US20100093726A1 (Giuseppe CAMPIANI, priority 2007, published 2010)

Key:
P. falciparum D10 = test: In vitro antiplasmodial activity, P. falciparum D10 (CQ-S clone); type: cell-based; conditions: Plasmodium falciparum
Description: (§1) Some of the synthesized compounds were tested in vitro against two different strains of P. falciparum, namely 3D7, NF54 and D10 (CQ-S strain) and K1 and W2 (CQ-R strain).

[1] = system: β-hematin formation (hemin); test: BHIA (β-hematin inhibitory activity) assay; type: biochemical; conditions: hemin in dimethyl sulfoxide-acetate buffer at pH 5.0, 37° C., 18 h
[2] = system: Candida krusei ATCC ® 6258; test: Antifungal susceptibility (CLSI broth dilution), Candida krusei; type: cell-based; conditions: CLSI protocol, quality control strain
Excerpt: (1) National Committee for Clinical Laboratory Standards. (2002). Reference method for broth dilution antifungal susceptibility testing of yeasts—Second Edition: Approved Standard, M27-A2. NCCLS, Wayne, Pa.; and
(2) National Committee for Clinical Laboratory Standards. Reference method for broth dilution antifungal susceptibility testing of filamentous fungi: Approved Standard, M38-A. 2002; NCCLS, Wayne, Pa.

P. falciparum K1 = test: microbe, parasite or virus in culture; type: cell-based; conditions: Plasmodium falciparum; P. falciparum K1, CQ-R clone
Description: as §1

P. falciparum W2 = test: microbe, parasite or virus in culture; type: cell-based; conditions: Plasmodium falciparum; P. falciparum W2, CQ-R clone
Description: as §1

Clc1ccccc1C(c1ccccc1)(c1ccccc1)n1ccnc1 [CLT, clotrimazole, reference compound]
IC50 (P. falciparum D10): 550 nM
β-hematin inhibitory activity IC50 [1]: 2.50 Molar equivalents of compound relative to hemin
antifungal susceptibility value (MIC), Candida krusei ATCC 6258 [2]: 2
IC50 (P. falciparum K1): 250 nM
IC50 (P. falciparum W2): 490 nM
